Experimental data published in PMC5386304.
No constants are given. Whether binding was seen depends on the method and setting. In cells and extracts the contact can be indirect. Some binding calls cover weakened binding; strength is not graded here. Tags and fused reporters may be left off the sequences shown.

Legend:
Assay in all cases: co-IP; NT2/D1 cells co-transfected with FLAG-SEPT12 and a GFP-SEPT12 plasmid; lysates immunoprecipitated with anti-GFP or reciprocally with anti-FLAG; blots with anti-FLAG and anti-GFP
GFP-SEPT12S198D (human) = molecular target: T1, GFP-SEPT12S198D (human) (UniProt Q8IYM1)
T1 sequence: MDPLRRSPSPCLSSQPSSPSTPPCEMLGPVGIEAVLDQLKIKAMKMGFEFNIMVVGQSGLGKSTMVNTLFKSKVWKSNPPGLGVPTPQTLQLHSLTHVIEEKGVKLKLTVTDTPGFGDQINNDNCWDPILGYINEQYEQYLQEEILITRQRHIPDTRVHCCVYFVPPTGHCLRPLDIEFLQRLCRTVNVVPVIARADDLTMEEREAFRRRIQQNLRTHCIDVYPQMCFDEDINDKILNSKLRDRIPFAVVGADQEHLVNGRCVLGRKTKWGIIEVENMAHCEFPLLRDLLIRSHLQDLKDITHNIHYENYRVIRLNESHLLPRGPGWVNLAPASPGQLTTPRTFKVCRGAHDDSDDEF

GFP-SEPT12WT (human) = molecular target: T2, GFP-SEPT12WT (human) (UniProt Q8IYM1)
T2 sequence: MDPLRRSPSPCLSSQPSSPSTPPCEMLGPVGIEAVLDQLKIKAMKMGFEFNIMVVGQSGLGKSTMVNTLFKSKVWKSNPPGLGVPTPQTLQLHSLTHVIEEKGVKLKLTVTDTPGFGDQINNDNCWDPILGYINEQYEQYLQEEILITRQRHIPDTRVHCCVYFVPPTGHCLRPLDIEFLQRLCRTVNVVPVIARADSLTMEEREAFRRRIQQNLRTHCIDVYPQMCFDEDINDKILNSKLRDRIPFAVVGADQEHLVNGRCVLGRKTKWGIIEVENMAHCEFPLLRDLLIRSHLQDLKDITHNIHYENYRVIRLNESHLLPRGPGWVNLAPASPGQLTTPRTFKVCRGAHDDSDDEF

GFP-SEPT12S198E (human) = molecular target: T3, GFP-SEPT12S198E (human) (UniProt Q8IYM1)
T3 sequence: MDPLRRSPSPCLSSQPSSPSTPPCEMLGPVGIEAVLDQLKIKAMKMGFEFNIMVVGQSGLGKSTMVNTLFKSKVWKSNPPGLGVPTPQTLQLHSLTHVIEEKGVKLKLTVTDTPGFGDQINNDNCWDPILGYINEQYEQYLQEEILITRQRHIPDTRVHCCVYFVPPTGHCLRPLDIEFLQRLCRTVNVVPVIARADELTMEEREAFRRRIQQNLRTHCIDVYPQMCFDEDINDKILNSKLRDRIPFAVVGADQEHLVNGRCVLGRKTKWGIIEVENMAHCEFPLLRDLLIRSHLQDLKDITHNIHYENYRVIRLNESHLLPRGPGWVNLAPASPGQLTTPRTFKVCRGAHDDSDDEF

Measured: binding

B1: FLAG-SEPT12WT (protein, UniProt Q8IYM1 1-358)
chain: MDPLRRSPSPCLSSQPSSPSTPPCEMLGPVGIEAVLDQLKIKAMKMGFEFNIMVVGQSGLGKSTMVNTLFKSKVWKSNPPGLGVPTPQTLQLHSLTHVIEEKGVKLKLTVTDTPGFGDQINNDNCWDPILGYINEQYEQYLQEEILITRQRHIPDTRVHCCVYFVPPTGHCLRPLDIEFLQRLCRTVNVVPVIARADSLTMEEREAFRRRIQQNLRTHCIDVYPQMCFDEDINDKILNSKLRDRIPFAVVGADQEHLVNGRCVLGRKTKWGIIEVENMAHCEFPLLRDLLIRSHLQDLKDITHNIHYENYRVIRLNESHLLPRGPGWVNLAPASPGQLTTPRTFKVCRGAHDDSDDEF
binds: all assays above
